Measured values: publication PMC7512061
These are yes or no findings as the source states them, for the method shown. In cells and extracts the contact can be indirect. Here binding means that the protein was enriched with, or labelled near, the bait; the list need not be complete.

By UniProt entry, the sequences of proteins in these tests, tags left out.
UniProt Q00987: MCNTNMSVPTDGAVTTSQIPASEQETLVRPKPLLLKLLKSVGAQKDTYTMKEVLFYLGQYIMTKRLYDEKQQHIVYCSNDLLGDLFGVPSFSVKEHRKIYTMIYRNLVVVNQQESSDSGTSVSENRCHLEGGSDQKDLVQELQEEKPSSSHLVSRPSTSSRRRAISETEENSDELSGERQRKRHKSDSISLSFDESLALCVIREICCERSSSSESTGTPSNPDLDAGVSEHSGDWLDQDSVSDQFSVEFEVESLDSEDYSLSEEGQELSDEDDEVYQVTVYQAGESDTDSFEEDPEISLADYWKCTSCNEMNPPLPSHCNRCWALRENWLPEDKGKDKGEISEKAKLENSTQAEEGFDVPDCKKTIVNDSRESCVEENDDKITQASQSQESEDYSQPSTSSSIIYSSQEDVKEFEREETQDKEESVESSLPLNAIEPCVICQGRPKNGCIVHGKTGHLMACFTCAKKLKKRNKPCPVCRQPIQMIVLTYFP

Target: MDM2 (human (endogenous in NB-39-nu)) (UniProt Q00987)
Assay: affinity purification with mass spectrometry; anti-MDM2 immunoprecipitates from NB-39-nu cells treated with 1 uM PF-477736 (CHK1i) or DMSO for 24 h; band of 100-150 kDa cut from a Coomassie-stained gel and analysed by LC-MS/MS

B1: centrosome-associated protein 131 (CEP131) (protein, UniProt Q9UPN4 1-1083)
chain: MKGTRAIGSVPERSPAGVDLSLTGLPPPVSRRPGSAATTKPIVRSVSVVTGSEQKRKVLEATGPGGSQAINNLRRSNSTTQVSQPRSGSPRPTEPTDFLMLFEGSPSGKKRPASLSTAPSEKGATWNVLDDQPRGFTLPSNARSSSALDSPAGPRRKECTVALAPNFTANNRSNKGAVGNCVTTMVHNRYTPSERAPPLKSSNQTAPSLNNIIKAATCEGSESSGFGKLPKNVSSATHSARNNTGGSTGLPRRKEVTEEEAERFIHQVNQATVTIQRWYRHQVQRRGAGAARLEHLLQAKREEQRQRSGEGTLLDLHQQKEAARRKAREEKARQARRAAIQELQQKRALRAQKASTAERGPPENPRETRVPGMRQPAQELSPTPGGTAHQALKANNTGGGLPAAGPGDRCLPTSDSSPEPQQPPEDRTQDVLAQDAAGDNLEMMAPSRGSAKSRGPLEELLHTLQLLEKEPDVLPRPRTHHRGRYAWASEVTTEDDASSLTADNLEKFGKLSAFPEPPEDGTLLSEAKLQSIMSFLDEMEKSGQDQLDSQQEGWVPEAGPGPLELGSEVSTSVMRLKLEVEEKKQAMLLLQRALAQQRDLTARRVKETEKALSRQLQRQREHYEATIQRHLAFIDQLIEDKKVLSEKCEAVVAELKQEDQRCTERVAQAQAQHELEIKKLKELMSATEKARREKWISEKTKKIKEVTVRGLEPEIQKLIARHKQEVRRLKSLHEAELLQSDERASQRCLRQAEELREQLEREKEALGQQERERARQRFQQHLEQEQWALQQQRQRLYSEVAEERERLGQQAARQRAELEELRQQLEESSSALTRALRAEFEKGREEQERRHQMELNTLKQQLELERQAWEAGRTRKEEAWLLNREQELREEIRKGRDKEIELVIHRLEADMALAKEESEKAAESRIKRLRDKYEAELSELEQSERKLQERCSELKGQLGEAEGENLRLQGLVRQKERALEDAQAVNEQLSSERSNLAQVIRQEFEDRLAASEEETRQAKAELATLQARQQLELEEVHRRVKTALARKEEAVSSLRTQHEAAVKRADHLEELLEQHRRPTPSTK
  binding: binds
